The list shows a part of the results. Small differences around the control level are noise.

The chains behind the UniProt entries cited, without tags or fusion partners. Where a name states a change or a piece, a line headed by the entry shows the natural chain unless it says otherwise.
UniProt O70475: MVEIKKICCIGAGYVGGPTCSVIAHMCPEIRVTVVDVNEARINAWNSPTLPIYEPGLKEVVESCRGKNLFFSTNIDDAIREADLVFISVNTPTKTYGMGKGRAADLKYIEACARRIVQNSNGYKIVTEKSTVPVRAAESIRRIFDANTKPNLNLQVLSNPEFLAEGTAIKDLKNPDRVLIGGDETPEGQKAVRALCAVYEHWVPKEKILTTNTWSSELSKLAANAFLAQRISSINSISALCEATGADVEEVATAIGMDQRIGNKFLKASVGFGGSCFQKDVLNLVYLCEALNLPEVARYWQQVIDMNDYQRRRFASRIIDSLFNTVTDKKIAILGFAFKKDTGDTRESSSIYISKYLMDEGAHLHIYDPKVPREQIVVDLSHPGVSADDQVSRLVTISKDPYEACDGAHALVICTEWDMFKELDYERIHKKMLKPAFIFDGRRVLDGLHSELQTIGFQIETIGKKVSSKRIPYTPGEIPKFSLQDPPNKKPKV
UniProt O70281: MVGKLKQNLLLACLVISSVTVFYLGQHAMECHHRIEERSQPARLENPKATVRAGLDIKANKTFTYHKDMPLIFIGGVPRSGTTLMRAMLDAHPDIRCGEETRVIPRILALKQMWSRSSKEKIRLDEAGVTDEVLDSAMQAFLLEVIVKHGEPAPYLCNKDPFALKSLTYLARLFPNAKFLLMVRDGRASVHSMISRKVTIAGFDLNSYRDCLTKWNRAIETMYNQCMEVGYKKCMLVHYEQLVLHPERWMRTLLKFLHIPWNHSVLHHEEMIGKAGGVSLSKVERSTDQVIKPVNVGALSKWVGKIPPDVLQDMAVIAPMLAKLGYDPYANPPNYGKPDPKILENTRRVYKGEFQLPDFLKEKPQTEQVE
UniProt O35698: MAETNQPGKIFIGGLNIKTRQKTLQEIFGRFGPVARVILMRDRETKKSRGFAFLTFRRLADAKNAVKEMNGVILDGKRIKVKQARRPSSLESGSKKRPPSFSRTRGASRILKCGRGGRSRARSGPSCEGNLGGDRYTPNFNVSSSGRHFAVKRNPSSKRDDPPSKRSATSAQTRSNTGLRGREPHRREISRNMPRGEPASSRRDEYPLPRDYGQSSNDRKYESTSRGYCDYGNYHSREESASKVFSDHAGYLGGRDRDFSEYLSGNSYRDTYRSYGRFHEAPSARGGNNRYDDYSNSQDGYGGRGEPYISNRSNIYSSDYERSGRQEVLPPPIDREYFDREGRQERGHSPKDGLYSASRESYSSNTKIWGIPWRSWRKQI
UniProt O70310: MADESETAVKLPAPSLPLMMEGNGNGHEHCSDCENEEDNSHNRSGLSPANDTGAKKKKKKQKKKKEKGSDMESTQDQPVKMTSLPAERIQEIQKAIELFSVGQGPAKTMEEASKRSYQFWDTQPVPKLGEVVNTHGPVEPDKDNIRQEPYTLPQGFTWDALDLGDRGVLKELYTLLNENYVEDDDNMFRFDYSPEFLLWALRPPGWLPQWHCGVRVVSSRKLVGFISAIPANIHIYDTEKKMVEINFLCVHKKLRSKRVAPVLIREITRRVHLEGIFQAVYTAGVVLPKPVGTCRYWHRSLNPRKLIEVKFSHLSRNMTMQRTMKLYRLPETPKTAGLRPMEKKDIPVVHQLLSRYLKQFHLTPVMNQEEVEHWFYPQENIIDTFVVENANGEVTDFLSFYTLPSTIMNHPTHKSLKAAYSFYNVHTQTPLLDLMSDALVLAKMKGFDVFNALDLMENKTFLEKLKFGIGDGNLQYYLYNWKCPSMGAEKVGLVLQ
UniProt O88545: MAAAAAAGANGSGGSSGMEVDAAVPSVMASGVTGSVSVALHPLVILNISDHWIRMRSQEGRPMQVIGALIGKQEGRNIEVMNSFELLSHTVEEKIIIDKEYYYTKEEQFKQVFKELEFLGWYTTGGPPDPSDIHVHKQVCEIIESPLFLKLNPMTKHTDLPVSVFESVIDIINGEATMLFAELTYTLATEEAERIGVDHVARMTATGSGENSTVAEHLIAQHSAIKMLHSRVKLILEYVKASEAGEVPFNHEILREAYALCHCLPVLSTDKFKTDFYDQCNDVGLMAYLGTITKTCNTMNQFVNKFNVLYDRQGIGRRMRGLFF
UniProt O70477: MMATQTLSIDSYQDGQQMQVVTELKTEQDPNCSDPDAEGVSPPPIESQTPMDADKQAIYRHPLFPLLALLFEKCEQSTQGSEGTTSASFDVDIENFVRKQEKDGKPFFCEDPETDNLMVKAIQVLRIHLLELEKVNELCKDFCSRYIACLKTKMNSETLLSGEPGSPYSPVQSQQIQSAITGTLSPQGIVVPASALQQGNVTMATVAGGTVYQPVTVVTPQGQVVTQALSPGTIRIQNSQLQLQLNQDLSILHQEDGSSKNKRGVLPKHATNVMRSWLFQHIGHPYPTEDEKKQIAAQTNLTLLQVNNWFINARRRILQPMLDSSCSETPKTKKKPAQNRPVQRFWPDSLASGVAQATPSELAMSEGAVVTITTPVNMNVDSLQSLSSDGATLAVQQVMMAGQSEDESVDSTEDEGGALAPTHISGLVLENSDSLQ
UniProt O54998: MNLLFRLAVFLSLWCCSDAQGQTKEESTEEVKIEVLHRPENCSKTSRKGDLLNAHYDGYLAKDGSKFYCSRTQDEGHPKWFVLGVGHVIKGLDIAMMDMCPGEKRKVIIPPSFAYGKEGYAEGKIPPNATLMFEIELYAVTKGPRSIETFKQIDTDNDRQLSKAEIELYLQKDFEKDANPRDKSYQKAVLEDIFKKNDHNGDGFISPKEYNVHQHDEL
UniProt O35654: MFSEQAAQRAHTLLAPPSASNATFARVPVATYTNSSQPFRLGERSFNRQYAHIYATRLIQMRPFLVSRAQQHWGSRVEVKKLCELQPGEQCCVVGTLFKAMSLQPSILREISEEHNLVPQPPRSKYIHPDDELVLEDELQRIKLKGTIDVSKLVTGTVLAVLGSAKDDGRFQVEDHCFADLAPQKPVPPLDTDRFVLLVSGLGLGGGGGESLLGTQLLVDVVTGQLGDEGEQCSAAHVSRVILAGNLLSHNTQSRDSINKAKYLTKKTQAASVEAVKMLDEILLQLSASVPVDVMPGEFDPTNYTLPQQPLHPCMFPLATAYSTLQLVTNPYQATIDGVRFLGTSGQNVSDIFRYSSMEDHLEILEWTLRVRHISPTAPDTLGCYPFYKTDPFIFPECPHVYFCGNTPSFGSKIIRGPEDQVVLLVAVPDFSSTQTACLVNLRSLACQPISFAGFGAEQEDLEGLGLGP
UniProt O70435: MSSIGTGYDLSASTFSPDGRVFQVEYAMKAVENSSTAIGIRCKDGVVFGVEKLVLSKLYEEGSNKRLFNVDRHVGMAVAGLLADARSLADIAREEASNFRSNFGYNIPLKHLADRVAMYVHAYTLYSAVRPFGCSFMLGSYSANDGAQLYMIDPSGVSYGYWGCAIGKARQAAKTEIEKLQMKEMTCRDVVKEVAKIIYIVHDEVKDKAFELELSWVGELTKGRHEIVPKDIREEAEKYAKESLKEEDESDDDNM
UniProt O88845: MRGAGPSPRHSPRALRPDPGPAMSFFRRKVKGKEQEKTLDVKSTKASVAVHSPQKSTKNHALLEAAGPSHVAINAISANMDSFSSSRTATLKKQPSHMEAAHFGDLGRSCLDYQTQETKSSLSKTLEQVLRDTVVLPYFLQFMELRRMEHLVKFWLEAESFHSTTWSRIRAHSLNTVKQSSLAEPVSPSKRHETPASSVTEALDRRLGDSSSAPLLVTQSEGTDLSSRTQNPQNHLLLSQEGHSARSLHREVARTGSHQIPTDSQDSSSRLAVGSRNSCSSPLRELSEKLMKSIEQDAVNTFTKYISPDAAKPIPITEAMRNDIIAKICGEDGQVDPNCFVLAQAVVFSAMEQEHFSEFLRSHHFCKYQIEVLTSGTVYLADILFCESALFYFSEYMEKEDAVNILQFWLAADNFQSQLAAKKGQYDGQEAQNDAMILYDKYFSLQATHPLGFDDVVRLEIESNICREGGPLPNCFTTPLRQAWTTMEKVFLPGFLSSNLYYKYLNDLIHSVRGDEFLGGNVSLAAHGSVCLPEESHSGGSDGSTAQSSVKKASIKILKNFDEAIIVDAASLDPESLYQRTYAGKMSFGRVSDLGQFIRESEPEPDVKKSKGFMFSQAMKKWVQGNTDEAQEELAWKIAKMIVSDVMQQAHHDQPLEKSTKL
UniProt O88876: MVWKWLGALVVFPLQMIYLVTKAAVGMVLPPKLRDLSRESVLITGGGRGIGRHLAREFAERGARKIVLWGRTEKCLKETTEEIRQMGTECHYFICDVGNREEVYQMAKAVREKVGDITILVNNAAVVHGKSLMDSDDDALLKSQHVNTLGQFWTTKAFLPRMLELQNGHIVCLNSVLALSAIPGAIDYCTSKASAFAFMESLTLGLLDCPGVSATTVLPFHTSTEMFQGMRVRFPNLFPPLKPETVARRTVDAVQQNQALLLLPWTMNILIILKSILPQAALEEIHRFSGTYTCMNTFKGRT
UniProt O88653, whole entry: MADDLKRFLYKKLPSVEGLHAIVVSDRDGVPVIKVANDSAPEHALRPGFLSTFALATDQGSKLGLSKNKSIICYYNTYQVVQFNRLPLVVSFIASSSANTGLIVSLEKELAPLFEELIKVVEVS
UniProt O55013, whole entry: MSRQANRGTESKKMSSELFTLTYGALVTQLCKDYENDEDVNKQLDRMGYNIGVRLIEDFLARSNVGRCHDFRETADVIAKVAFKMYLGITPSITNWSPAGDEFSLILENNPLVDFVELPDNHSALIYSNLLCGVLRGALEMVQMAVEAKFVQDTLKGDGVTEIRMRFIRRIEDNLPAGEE
UniProt O88199: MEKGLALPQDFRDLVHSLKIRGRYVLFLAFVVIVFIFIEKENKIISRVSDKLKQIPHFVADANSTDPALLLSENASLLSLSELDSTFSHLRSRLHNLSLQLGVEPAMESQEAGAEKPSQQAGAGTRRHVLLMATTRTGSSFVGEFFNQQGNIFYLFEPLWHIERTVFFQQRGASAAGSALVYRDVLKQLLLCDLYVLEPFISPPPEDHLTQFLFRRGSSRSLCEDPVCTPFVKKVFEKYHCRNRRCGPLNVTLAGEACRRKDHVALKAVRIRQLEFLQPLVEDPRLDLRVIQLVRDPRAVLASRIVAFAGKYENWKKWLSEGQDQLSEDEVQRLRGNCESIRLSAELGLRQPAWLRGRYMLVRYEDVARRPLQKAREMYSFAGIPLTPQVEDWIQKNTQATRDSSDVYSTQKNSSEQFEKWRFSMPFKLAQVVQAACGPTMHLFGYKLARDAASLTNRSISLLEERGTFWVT
UniProt O54824: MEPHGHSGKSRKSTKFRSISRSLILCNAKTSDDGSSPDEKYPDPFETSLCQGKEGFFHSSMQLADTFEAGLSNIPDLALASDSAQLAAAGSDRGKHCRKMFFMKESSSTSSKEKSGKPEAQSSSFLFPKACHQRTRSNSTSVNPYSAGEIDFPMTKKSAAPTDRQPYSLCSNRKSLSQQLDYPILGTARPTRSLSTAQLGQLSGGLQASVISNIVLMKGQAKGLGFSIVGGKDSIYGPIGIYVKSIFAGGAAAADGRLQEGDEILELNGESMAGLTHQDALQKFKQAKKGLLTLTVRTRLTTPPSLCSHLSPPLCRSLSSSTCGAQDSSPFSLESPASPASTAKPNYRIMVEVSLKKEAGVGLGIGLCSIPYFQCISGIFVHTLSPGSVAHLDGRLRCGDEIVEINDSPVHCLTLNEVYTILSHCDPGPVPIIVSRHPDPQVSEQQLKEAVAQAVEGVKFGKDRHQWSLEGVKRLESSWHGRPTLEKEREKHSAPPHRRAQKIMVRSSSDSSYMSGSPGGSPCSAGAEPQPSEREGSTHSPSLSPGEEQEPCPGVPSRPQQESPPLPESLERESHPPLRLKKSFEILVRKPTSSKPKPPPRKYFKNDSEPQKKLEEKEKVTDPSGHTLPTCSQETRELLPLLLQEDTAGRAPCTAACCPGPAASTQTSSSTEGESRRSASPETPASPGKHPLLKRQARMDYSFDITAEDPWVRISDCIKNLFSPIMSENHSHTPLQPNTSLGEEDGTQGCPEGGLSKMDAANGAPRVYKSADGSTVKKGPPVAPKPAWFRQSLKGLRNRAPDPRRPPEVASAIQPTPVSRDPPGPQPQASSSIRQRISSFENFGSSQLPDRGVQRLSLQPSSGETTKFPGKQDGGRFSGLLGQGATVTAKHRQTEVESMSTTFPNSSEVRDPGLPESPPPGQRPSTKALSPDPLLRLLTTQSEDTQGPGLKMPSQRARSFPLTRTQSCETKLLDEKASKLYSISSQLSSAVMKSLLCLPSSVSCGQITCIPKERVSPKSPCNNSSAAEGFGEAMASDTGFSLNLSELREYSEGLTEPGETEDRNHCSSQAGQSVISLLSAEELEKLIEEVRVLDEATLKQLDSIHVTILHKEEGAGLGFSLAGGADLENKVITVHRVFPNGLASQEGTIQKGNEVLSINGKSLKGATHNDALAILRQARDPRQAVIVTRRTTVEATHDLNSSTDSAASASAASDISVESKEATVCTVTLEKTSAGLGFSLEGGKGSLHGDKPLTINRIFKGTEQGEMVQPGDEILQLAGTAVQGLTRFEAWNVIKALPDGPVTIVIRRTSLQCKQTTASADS

Compound in the assay: CN[C@@H]1C[C@H]2O[C@@](C)([C@@H]1OC)n1c3ccccc3c3c4c(c5c6ccccc6n2c5c31)C(=O)NC4 [staurosporine]
In words: log2 fold change of tryptic peptide abundance, ligand vs vehicle (limited proteolysis) (log2 ratio); higher = more trypsin-susceptible (destabilized). The note with it: ligand concentration: 20 uM; sample: mouse liver crude lysate; replicate design: treated separately.
In the case of “UniProt O70475 (peptide sequence: KMLKPAFIFDGR, peptide start residue: 431)”, the log2 fold change was found to be 0.142.
As to “UniProt O88833 (peptide sequence: DQLQDEGELEK, peptide start residue: 271)”, the log2 fold change was 0.195.
For the target “UniProt O70281 (peptide sequence: AGGVSLSKVER, peptide start residue: 275)”, the log2 fold change is -0.458.
Take “UniProt O35698 (peptide sequence: PPSFSRTR, peptide start residue: 98)”: the log2 fold change was 0.127.
For “UniProt O70310 (peptide sequence: LGEVVNTHGPVEPDKDNIR, peptide start residue: 128)”, the log2 fold change is 0.379.
Regarding “UniProt O70374 (peptide sequence: QHSPGSTDSLSNDSQR, peptide start residue: 398)”, the log2 fold change was -0.605.
On to “UniProt O88545 (peptide sequence: FNVLYDR, peptide start residue: 306)”, for which the log2 fold change is -0.325.
The figure for “UniProt O70477 (peptide sequence: SWLFQHIGHPYPTEDEKK, peptide start residue: 276)” is 0.218; for “UniProt O54998 (peptide sequence: DFEKDANPR, peptide start residue: 173)” it is -0.349.
The result for “UniProt O54754 (peptide sequence: VTWISPVTLK, peptide start residue: 240)” reads 0.176; that for “UniProt O35654 (peptide sequence: EISEEHNLVPQPPR, peptide start residue: 110)”, -0.131.
The figure for “UniProt O70131 (peptide sequence: NRPINVNHYANKK, peptide start residue: 33)” is -0.278.
On to “UniProt O35841 (peptide sequence: KLPDFLTAK, peptide start residue: 356)”, for which the log2 fold change was 0.661.
On to “UniProt O70167 (peptide sequence: RPLQSIR, peptide start residue: 842)”, for which the log2 fold change is -0.352.
The result for “UniProt O70435 (peptide sequence: SNFGYNIPLK, peptide start residue: 101)” reads 0.403.
The result for “UniProt O88845 (peptide sequence: SKGFMFSQAMK, peptide start residue: 610)” reads -0.447; that for “UniProt O35711 (peptide sequence: DSSFLAEQKYPTLPGK, peptide start residue: 412)”, -0.23; that for “UniProt O35738 (peptide sequence: AVQEVHPSPVSR, peptide start residue: 266)”, 0.151.
For the target “UniProt O88876 (peptide sequence: VRFPNLFPPLKPETVAR, peptide start residue: 232)”, the log2 fold change was -0.126.
In the case of “UniProt O88653 (peptide sequence: KLPSVEGLHAIVVSDRDGVPVIK, peptide start residue: 12)”, the log2 fold change is -0.511.
As for “UniProt O55013 (peptide sequence: FVQDTLKGDGVTEIR, peptide start residue: 150)”, the log2 fold change is -0.218.
The result for “UniProt O70570 (peptide sequence: VALEEEVVDSSISEKENK, peptide start residue: 585)” reads -0.0859.
The figure for “UniProt O88685 (peptide sequence: KIEFPMPNEEAR, peptide start residue: 354)” is -0.192; for “UniProt O35626 (peptide sequence: LKQQILDTK, peptide start residue: 117)” it is 0.194; for “UniProt O88856 (peptide sequence: STDQVIKPVNLEALSK, peptide start residue: 284)” it is -0.193.
As to “UniProt O88199 (peptide sequence: GRYMLVR, peptide start residue: 357)”, the log2 fold change worked out at 0.112.
As to “UniProt O55055 (peptide sequence: IGLQGDMTDPR, peptide start residue: 85)”, the log2 fold change is -0.221.
The result for “UniProt O54824 (peptide sequence: FSGLLGQGATVTAK, peptide start residue: 877)” reads -0.15.
